Laboratory results: patent publication US6946480B2, “Glutaminyl based DPIV inhibitors” (priority 2002, dated 2005)
At least one compound was matched to its structure with a doubt left.

Sequences of proteins named here, by UniProt entry; tags and fusion partners are left off. Residues count along the entry.
UniProt P80067, 394-462 limits assumed: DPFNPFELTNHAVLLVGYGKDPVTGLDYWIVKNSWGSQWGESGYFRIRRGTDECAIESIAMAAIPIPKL
UniProt P80067, 25-134 limits assumed: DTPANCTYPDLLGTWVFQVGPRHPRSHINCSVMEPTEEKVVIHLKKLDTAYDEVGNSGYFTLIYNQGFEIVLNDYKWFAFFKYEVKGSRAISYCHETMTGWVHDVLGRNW
UniProt P80067, 230-393 limits assumed: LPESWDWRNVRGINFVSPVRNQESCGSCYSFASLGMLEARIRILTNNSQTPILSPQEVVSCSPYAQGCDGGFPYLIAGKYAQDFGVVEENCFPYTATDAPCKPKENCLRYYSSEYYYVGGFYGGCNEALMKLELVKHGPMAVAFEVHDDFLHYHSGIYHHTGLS
UniProt P14740, 37-767 limits assumed: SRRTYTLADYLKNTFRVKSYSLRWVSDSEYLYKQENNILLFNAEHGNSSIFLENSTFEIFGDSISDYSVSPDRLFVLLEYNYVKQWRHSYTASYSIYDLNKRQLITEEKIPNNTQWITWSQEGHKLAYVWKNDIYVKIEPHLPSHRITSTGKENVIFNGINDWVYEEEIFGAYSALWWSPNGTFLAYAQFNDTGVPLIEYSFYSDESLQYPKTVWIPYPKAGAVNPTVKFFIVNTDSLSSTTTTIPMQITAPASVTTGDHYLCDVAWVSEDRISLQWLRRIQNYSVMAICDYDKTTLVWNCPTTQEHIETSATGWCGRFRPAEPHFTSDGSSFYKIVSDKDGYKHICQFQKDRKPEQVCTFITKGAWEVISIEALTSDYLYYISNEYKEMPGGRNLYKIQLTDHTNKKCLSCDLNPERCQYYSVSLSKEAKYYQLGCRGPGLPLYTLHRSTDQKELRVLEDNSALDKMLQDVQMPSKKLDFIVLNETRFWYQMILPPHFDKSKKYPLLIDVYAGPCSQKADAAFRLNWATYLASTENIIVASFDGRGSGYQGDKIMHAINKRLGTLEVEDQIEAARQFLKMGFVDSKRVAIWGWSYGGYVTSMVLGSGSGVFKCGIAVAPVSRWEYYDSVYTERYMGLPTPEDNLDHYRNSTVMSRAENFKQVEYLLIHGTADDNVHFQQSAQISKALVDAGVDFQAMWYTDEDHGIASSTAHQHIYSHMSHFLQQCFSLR

What was measured:
[1] = molecular target: T1, Dipeptidyl Peptidase I (DP I, Cathepsin C) (Rattus norvegicus, UniProt P80067); experiment: Cross reacting enzymes - dipeptidyl peptidase I; type: biochemical; settings: concentration range 1*10^−5 M-1*10^−7 M
T1 construct: purchased Qiagen GmbH, Hilden, Germany
Description: (§1) Glutaminyl pyrrolidine or glutaminyl thiazolidine were tested for their cross reacting potency against dipeptidyl peptidase I, prolyl oligopeptidase and prolidase.
DP I or cathepsin C is a lysosomal cysteine protease which cleaves off dipeptides from the N-terminus of their substrates (Gutman, H. R. & Fruton, J. S., 1948, J. Biol: Chem., 174, 851-858) . It is classified as a cysteine protease.
The enzyme used was purchased from Qiagen (Qiagen GmbH, Hilden, Germany). In order to get a fully active enzyme, the enzyme was diluted 1000fold in MES buffer pH5,6 (40 mM MES, 4 mM DTT, 4 mM KCl, 2 mM EDTA, 0.015% Brij) and pre-incubated for 30 min at 30° C.
50 μl glutaminyl pyrrolidine or glutaminyl thiazolidine in a concentration range of 1*10^−5 M-1*10^−7 M were admixed with 110 μl buffer-enzyme-mixture. The assay mixture was pre-incubated at 30° C. for 15 min After pre-incubation, 100 μl histidylseryl-β-nitroaniline (2*10^−5 M) were added and measurement of yellow color development due to β-nitroaniline release was performed at 30° C. and […] for 10 min, using a plate reader (HTS7000 plus, Applied Biosystems, Weiterstadt, Germany).
(§2) The IC50-values were calculated using Graphit 4.0.15 (Erithacus Software, Ltd., UK).

[2] = molecular target: T2, recombinant human prolyl oligopeptidase (POP) (Homo sapiens, UniProt P48147); experiment: Cross reacting enzymes - prolyl oligopeptidase; type: biochemical; settings: concentration range 1*10^−4 M-5*10^−8 M
T2 construct: made in house; host or cells: E. coli
T2 sequence (P48147 1-710): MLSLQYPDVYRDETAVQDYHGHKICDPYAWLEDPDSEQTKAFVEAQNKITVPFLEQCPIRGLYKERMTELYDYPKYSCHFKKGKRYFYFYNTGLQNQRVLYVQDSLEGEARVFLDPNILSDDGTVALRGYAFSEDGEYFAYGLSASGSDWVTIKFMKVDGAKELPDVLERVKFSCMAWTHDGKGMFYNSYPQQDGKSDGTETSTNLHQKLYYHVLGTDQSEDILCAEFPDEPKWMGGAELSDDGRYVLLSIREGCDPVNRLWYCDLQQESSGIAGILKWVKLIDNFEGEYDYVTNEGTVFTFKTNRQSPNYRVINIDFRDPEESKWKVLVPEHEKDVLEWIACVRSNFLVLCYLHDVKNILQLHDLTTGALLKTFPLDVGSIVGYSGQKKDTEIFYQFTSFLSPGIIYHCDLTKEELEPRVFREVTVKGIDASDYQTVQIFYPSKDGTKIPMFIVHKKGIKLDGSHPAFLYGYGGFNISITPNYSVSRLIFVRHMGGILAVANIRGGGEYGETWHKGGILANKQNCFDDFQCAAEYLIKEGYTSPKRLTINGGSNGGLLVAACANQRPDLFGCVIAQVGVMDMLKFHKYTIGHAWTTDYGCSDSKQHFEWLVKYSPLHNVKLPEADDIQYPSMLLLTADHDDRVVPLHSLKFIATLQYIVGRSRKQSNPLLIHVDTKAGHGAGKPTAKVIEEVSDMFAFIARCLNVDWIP
Description: as §1
Substrates are peptides with a molecular weight up to 3000 Da.
The enzyme used was a recombinant human prolyl oligopeptidase. Recombinant expression was performed in E. coli under standard conditions as described elsewhere in the state of the art.
100 μl glutaminyl pyrrolidine or glutaminyl thiazolidine in an concentration range of 1*10^−4 M-5*10^−8 M were admixed with 100 μl μl buffer solution (40 mM HEPES, pH7.6, 0.015% Brij, 1 mM DTT) and 20 μl POP solution. The assay mixture was pre-incubated at 30° C. for 15 min After pre-incubation, 50 μl glycylprolylprolyl-4-nitroaniline solution (0.29 mM) were added and measurement of yellow color development due to 4-nitroaniline release was performed at 30° C. and λ=405 nm for 10 min using a plate reader (sunrise, Tecan, Crailsheim, Germany).
as §2

[3] = molecular target: T3, Prolidase from porcine kidney (Sus scrofa, UniProt A0A5G2QQV1); experiment: Cross reacting enzymes - prolidase; type: biochemical
T3 sequence (A0A5G2QQV1 1-463): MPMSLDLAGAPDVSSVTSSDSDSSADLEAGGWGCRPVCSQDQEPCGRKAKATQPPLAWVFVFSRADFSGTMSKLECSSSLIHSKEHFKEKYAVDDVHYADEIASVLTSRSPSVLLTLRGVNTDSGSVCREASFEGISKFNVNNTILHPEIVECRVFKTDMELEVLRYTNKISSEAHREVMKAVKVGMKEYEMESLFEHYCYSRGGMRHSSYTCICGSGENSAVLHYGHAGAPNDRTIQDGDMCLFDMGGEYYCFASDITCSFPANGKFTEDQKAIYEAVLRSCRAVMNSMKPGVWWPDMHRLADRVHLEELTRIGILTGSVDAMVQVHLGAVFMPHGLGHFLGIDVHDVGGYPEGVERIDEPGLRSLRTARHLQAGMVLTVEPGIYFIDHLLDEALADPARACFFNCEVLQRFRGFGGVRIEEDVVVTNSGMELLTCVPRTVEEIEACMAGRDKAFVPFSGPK
Description: as §1
Prolidase (EC 3.4.13.9) was first described by Bergmann & Fruton (Bergmann, M. & Fruton, J S, 1937, J. Biol. Chem. 189-202). Prolidase releases the N-terminal amino acid from Xaa-Pro dipeptides and has a pH optimum between 6 and 9.
Prolidase from porcine kidney (ICN Biomedicals, Eschwege, Germany). was solved (1 mg/ml) in assay buffer (20 mM NH4(CH3COO)2, 3 mM MnCl2, pH 7.6). In order to get a fully active enzyme the solution was incubated for 60 min at room temperature.
450 μl glutaminyl pyrrolidine or glutaminyl thiazolidine in an concentration range of 5*10^−3 M-5*10^−7 M were admixed with 500 μl buffer solution (20 mM NH4(CH3COO)2, pH 7.6) and 250 μl lle-Pro-OH (0.5 mM in the assay mixture). The assay mixture was pre-incubated at 30° C. for 5 min After pre-incubation, 75 μl Prolidase (1:10 diluted in assay buffer) were added and measurement was performed at 30° C. and λ=220 nm for 20 min using a UV/Vis photometer, UV1 (Thermo Spectronic, Cambridge, UK).
as §2

plasma DPIV activity = molecular target: T4, plasma DPIV activity (Rattus norvegicus, UniProt P14740); experiment: Plasma DPIV inhibiting activity after intravasal and oral administration to Wistar rats; type: in vivo; settings: 100 mg/kg b.w. vs. placebo, oral and intra-vasal administration
T4 construct: The assay mixture for determination of plasma DPIV activity consisted of 80 μl reagent and 20 μl plasma sample; from tissue; host or cells: plasma of male Wistar rats
Description: Male Wistar rats (Shoe: Wist(Sho)) with a body weight ranging between 250 and 350 g were purchased from Tierzucht Schönwalde (Schönwalde, Germany).
Animals were single-caged under conventional conditions with controlled temperature (22±2° C.) on a 12/12 hours light/dark cycle (light on at 06:00 AM). Standard pelleted chow (ssniff® Soest, Germany) and tap water acidified with HCl were allowed ad libitum.
After ≧one week of adaptation at the housing conditions, catheters were implanted into the carotid artery of Wistar rats under general anaesthesia (i.p. injection of 0.25 ml/kg b.w. Rompun® [2%], BayerVital, Germany and 0.5 ml/kg b.w. Ketamin 10, Atarost GmbH & Co., Twistringen, Germany). The animals were allowed to recover for one week. The catheters were flushed with heparin-saline (100 IU/ml) three times per week. In case of catheter dysfunction, a second catheter was inserted into the contra-lateral carotid artery of the respective rat. After one week of recovery from surgery, this animal was reintegrated into the study. In case of dysfunction of the second catheter, the animal was withdrawn from the study. […]
Statistical evaluations and graphics were performed with PRISM® 3.02 (GraphPad Software, Inc.). All parameters were analysed in a descriptive manner including mean and SD.

diabetic Zucker rats = experiment: Dose escalation study with oral glucose tolerance test in fatty Zucker rats; type: in vivo, Zucker rats (fa/fa); settings: 5 mg/kg, 15 mg/kg and 50 mg/kg b.w. oral
Description: N=30 male Zucker rats (fa/fa), mean age 11 weeks (5-12 weeks), mean body weight 350 g (150-400 g), were purchased from Charles River (Sulzfeld, Germany). After delivery they were kept for >12 weeks until nearly all fatty Zucker rats had the characteristics of manifest diabetes mellitus. A group of N=8 animals were recruited for testing three escalating doses of glutaminyl pyrrolidine vs. placebo (saline).
Animals were single-caged under standardized conditions with controlled temperature (22±2° C.) on a 12/12 hours light/dark cycle (light on at 06:00 AM). Sterile standard pelleted chow (ssniff® Soest, Germany) and tap water acidified with HCl were allowed ad libitum.
Fatty Zucker rats of 24-31 weeks (mean: 25 weeks) age, adapted to the housing conditions, were well prepared for the study.
Catheters were implanted into the carotid artery of fatty Zucker rats under general anaesthesia (i.p. injection of 0.25 ml/kg b.w. Rompune® [2%], BayerVital, Germany and 0.5 ml/kg b.w. Ketamin 10, Atarost GmbH & Co., Twistringen, Germany). The animals were allowed to recover for one week. […]
Glucose levels were measured using the glucose oxidase procedure (Super G Glucose analyzer; Dr. Müller Gerätebau, Freital, Germany).
Statistical evaluations and graphics were performed with PRISM® 3.02 (GraphPad Software, Inc.). All parameters were analysed in a descriptive manner including mean and SD. […]

## NC(=O)CCC(N)C(=O)N1CCSC1 (centres unmarked) [glutaminyl thiazolidine]
[1]
  inhibition of DP I enzyme activity: no inhibition
[2]
  inhibition of POP activity: no inhibition
[3]
  efficacy against prolidase compared to DPIV: marked lower efficacy
Plasma DPIV activity
  inhibition of plasma DPIV activity in vivo: inhibited plasma DPIV activity
Diabetic Zucker rats
  effect on blood glucose levels over escalating doses (OGTT): dose dependent lowering of elevated blood glucose levels
